Our source for the binding values is PMC3808375, “Reduction of Decoy Receptor 3 Enhances TRAIL-Mediated Apoptosis in Pancreatic Cancer” (PLoS ONE, 2013).

Sequences of proteins named here, by UniProt entry; tags and fusion partners are left off. A change or cut given only in a name is not applied to a line headed by its entry.
UniProt P48023: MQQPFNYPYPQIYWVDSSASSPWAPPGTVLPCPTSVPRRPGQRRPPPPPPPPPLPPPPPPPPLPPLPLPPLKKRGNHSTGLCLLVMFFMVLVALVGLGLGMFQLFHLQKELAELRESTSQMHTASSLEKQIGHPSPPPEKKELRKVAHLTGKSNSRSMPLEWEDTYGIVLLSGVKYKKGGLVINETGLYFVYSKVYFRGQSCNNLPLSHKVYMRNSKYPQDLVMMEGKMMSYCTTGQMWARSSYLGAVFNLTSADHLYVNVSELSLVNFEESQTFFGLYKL

These are yes or no findings as the source states them, for the method shown. For some of these results: Binding seen in cells or lysates may run through a third protein. Some entries that bind do so weakly or less than the wild type.

Experiment [1] has as its target T1, recombinant human DcR3 (decoy receptor 3) (human) (UniProt O95407).
T1 sequence: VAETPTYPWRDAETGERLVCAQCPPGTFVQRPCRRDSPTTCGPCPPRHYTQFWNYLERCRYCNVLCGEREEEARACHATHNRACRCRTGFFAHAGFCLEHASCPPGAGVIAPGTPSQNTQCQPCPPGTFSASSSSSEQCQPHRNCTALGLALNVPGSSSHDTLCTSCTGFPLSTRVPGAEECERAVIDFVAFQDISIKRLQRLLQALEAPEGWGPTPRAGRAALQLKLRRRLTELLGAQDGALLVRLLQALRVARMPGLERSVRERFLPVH
Kind of experiment: ELISA; wells coated with DcR3 (2 µg/ml); recombinant FasL or TRAIL (1 µg/ml) added with or without free DcR3 (20-50 µg/ml); detected with biotinylated anti-FasL or anti-TRAIL; both purified.

For experiment [2], the target named is T2, membrane-bound TRAIL of pancreatic cancer cells (human (endogenous in AsPC-1 and MiaPaCa-2)), P50591.
T2 chain: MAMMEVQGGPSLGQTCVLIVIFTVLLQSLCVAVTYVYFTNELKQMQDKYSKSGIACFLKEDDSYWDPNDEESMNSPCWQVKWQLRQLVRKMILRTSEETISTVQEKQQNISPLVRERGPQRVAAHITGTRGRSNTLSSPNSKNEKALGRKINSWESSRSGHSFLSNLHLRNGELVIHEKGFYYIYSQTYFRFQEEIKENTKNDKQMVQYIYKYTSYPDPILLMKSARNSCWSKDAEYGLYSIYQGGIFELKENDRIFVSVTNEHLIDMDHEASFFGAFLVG
Kind of experiment: co-IP; AsPC-1 cell lysate precipitated with anti-DcR3 or anti-TRAIL at 4°C overnight, protein A beads; blot with biotinylated anti-TRAIL or anti-DcR3; FasL as positive control. The note with it: remark: other sources report otherwise.

The target in experiment [3] is T2, membrane-bound TRAIL of pancreatic …. Kind of experiment: Western blotting of a complex band in tumor lysate; lysate (30 µg/sample) of AsPC-1 tumors from nude mice, stained with anti-TRAIL and anti-DcR3; two bands each. The note with it: remark: other sources report otherwise. Background: A western blot detects proteins with antibodies after separation by electrophoresis.

Experiment [4] shares this target. The experiment is described as follows: flow cytometry on cells; AsPC-1 cells incubated with recombinant DcR3 (5 µg/ml) with or without TRAIL (5 µg/ml) or anti-TRAIL monoclonal antibody (1 µg/ml), 1 hour at 4°C; bound DcR3 detected with biotinylated anti-DcR3 and FITC-streptavidin; only the binder purified. The note with it: remark: other sources report otherwise. (In flow cytometry, cells or beads pass a laser one at a time.)

Experiment [5] shares this target. The experiment is described as follows: flow cytometry on cells; AsPC-1 (gemcitabine 0-1000 nM) or MiaPaCa-2 (0-100 nM) cells; recombinant DcR3 added to block the access of anti-TRAIL; exposed TRAIL stained with anti-TRAIL; only the binder purified. The following applies: remark: other sources report otherwise.
Experiment [6] addresses endogenous FasL of AsPC-1 cells (human (endogenous in AsPC-1)) (UniProt P48023). Kind of experiment: co-IP; AsPC-1 culture media precipitated with anti-DcR3 or anti-TRAIL at 4°C overnight, protein A beads; blot with biotinylated anti-TRAIL or anti-DcR3; FasL as positive control.
For experiment [7] the target is unchanged. The experiment is described as follows: co-IP; AsPC-1 cell lysate precipitated with anti-DcR3 or anti-TRAIL at 4°C overnight, protein A beads; blot with biotinylated anti-TRAIL or anti-DcR3; FasL as positive control.
In experiment [8] the target is recombinant FasL (UniProt P48023). The experiment is described as follows: co-IP; 100 µl mixture of pure recombinant DcR3 and TRAIL (1 µg/ml) precipitated with anti-DcR3 or anti-TRAIL and protein A beads; eluted with non-denatured Laemmli buffer; blot with biotinylated anti-TRAIL or anti-DcR3; FasL as positive control; both purified.
The target is the same in experiment [9]. Kind of experiment: ELISA; wells coated with recombinant FasL or TRAIL (1 µg/ml); recombinant DcR3 (1 µg/ml) added with or without free TRAIL or FasL (10-20 µg/ml), 4°C overnight; detected with biotinylated DcR3 antibody; both purified. Background: In an ELISA, binding on a coated surface is turned into a signal by an enzyme label.
Experiment [10] concerns the target T3, endogenous DcR3 of AsPC-1 cells (human (endogenous in AsPC-1)), O95407.
T3 chain: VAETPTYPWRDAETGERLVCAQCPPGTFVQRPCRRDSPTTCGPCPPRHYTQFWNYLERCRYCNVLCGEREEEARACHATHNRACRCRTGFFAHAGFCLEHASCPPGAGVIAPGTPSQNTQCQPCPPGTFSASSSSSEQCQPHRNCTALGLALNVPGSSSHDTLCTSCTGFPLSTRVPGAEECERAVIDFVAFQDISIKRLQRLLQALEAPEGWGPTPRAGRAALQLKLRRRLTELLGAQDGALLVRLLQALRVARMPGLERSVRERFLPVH
Kind of experiment: co-IP; AsPC-1 cell lysate precipitated with anti-DcR3 or anti-TRAIL at 4°C overnight, protein A beads; blot with biotinylated anti-TRAIL or anti-DcR3; FasL as positive control. The note with it: remark: other sources report otherwise.

Turning to “recombinant FasL (from UniProt P48023 130-281) (ligand)”, the binding entry in experiment [1] is “binds”.

B1: endogenous DcR3 of AsPC-1 cells, O95407 30-300 (receptor)
chain: VAETPTYPWRDAETGERLVCAQCPPGTFVQRPCRRDSPTTCGPCPPRHYTQFWNYLERCRYCNVLCGEREEEARACHATHNRACRCRTGFFAHAGFCLEHASCPPGAGVIAPGTPSQNTQCQPCPPGTFSASSSSSEQCQPHRNCTALGLALNVPGSSSHDTLCTSCTGFPLSTRVPGAEECERAVIDFVAFQDISIKRLQRLLQALEAPEGWGPTPRAGRAALQLKLRRRLTELLGAQDGALLVRLLQALRVARMPGLERSVRERFLPVH
Turning to B1, the binding result in experiment [2] and in experiment [3] was “binds” throughout.

B2: recombinant human DcR3 (decoy receptor 3), O95407 30-300 (receptor)
chain: VAETPTYPWRDAETGERLVCAQCPPGTFVQRPCRRDSPTTCGPCPPRHYTQFWNYLERCRYCNVLCGEREEEARACHATHNRACRCRTGFFAHAGFCLEHASCPPGAGVIAPGTPSQNTQCQPCPPGTFSASSSSSEQCQPHRNCTALGLALNVPGSSSHDTLCTSCTGFPLSTRVPGAEECERAVIDFVAFQDISIKRLQRLLQALEAPEGWGPTPRAGRAALQLKLRRRLTELLGAQDGALLVRLLQALRVARMPGLERSVRERFLPVH
For the molecule B2, the binding result in experiment [4] and in experiment [5] was “binds” throughout.

B3: endogenous DcR3 of AsPC-1 cells (receptor, UniProt O95407 30-300)
chain: VAETPTYPWRDAETGERLVCAQCPPGTFVQRPCRRDSPTTCGPCPPRHYTQFWNYLERCRYCNVLCGEREEEARACHATHNRACRCRTGFFAHAGFCLEHASCPPGAGVIAPGTPSQNTQCQPCPPGTFSASSSSSEQCQPHRNCTALGLALNVPGSSSHDTLCTSCTGFPLSTRVPGAEECERAVIDFVAFQDISIKRLQRLLQALEAPEGWGPTPRAGRAALQLKLRRRLTELLGAQDGALLVRLLQALRVARMPGLERSVRERFLPVH
In the case of B3, the binding entry in experiment [6] and in experiment [7] was “binds” in each case.

B4: recombinant human DcR3 (decoy receptor 3) (receptor, UniProt O95407 30-300)
chain: VAETPTYPWRDAETGERLVCAQCPPGTFVQRPCRRDSPTTCGPCPPRHYTQFWNYLERCRYCNVLCGEREEEARACHATHNRACRCRTGFFAHAGFCLEHASCPPGAGVIAPGTPSQNTQCQPCPPGTFSASSSSSEQCQPHRNCTALGLALNVPGSSSHDTLCTSCTGFPLSTRVPGAEECERAVIDFVAFQDISIKRLQRLLQALEAPEGWGPTPRAGRAALQLKLRRRLTELLGAQDGALLVRLLQALRVARMPGLERSVRERFLPVH
Take B4: the binding entry with recombinant FasL [8] and with recombinant FasL [9] was “binds” each time.

B5: membrane-bound TRAIL of pancreatic cancer cells, P50591 1-281 (ligand)
chain: MAMMEVQGGPSLGQTCVLIVIFTVLLQSLCVAVTYVYFTNELKQMQDKYSKSGIACFLKEDDSYWDPNDEESMNSPCWQVKWQLRQLVRKMILRTSEETISTVQEKQQNISPLVRERGPQRVAAHITGTRGRSNTLSSPNSKNEKALGRKINSWESSRSGHSFLSNLHLRNGELVIHEKGFYYIYSQTYFRFQEEIKENTKNDKQMVQYIYKYTSYPDPILLMKSARNSCWSKDAEYGLYSIYQGGIFELKENDRIFVSVTNEHLIDMDHEASFFGAFLVG
As to B5, in experiment [10], the binding result was “binds”.
